Data reported in paper PMC4474807.
Results are given in words; binding and its absence hold for the method and conditions named. In cells and extracts the contact can be indirect. Some results given as binding are weak or reduced against the parent protein; the word gives no strength.

Sequences of proteins named here, by UniProt entry; tags and fusion partners are left off.
UniProt Q07157: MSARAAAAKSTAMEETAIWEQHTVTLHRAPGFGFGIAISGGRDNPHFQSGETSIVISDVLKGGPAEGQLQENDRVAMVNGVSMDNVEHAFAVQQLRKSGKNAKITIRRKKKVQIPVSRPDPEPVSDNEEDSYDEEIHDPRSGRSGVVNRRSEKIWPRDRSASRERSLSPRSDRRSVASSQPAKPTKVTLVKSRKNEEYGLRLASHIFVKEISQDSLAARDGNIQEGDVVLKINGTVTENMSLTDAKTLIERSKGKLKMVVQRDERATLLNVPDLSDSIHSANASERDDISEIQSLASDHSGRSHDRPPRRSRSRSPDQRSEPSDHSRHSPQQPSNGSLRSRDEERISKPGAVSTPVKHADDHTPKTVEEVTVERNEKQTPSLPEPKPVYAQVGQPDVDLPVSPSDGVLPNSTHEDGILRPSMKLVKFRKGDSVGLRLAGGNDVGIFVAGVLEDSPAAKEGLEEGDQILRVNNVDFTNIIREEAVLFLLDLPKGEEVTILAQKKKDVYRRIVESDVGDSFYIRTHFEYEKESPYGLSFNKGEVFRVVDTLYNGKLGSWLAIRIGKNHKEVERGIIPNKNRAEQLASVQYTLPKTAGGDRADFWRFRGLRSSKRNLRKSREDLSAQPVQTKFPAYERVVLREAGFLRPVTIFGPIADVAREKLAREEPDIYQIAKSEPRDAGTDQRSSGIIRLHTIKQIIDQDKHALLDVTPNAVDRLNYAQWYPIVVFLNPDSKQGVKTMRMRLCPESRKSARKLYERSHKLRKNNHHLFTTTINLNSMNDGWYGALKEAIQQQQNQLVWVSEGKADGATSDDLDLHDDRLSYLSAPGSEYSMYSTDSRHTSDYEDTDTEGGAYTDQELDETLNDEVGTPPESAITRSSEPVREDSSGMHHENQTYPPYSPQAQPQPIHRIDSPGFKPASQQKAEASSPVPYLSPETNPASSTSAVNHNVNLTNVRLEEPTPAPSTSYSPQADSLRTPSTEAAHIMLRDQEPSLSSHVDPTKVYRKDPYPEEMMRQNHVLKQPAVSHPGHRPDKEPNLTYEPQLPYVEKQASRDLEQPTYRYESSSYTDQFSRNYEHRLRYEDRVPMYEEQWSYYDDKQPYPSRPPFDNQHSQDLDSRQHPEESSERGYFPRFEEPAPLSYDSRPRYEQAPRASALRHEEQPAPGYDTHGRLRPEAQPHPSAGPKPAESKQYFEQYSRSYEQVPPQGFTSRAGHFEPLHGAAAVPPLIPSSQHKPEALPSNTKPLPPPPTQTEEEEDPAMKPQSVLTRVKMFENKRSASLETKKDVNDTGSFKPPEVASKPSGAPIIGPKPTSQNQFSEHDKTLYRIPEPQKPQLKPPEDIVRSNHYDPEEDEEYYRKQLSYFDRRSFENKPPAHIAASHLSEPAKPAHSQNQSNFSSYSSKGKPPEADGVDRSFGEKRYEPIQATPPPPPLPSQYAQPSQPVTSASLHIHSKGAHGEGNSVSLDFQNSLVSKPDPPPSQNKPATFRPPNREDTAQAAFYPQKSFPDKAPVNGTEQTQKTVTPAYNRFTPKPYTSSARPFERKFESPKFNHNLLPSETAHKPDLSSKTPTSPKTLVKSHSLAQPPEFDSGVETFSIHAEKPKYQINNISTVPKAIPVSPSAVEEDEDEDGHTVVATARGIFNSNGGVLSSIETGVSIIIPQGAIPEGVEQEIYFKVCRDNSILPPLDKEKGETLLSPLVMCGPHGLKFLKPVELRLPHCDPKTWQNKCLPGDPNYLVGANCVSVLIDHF

T1: Occludin (human (endogenous in HBMECs)) (UniProt Q16625)
T1 sequence: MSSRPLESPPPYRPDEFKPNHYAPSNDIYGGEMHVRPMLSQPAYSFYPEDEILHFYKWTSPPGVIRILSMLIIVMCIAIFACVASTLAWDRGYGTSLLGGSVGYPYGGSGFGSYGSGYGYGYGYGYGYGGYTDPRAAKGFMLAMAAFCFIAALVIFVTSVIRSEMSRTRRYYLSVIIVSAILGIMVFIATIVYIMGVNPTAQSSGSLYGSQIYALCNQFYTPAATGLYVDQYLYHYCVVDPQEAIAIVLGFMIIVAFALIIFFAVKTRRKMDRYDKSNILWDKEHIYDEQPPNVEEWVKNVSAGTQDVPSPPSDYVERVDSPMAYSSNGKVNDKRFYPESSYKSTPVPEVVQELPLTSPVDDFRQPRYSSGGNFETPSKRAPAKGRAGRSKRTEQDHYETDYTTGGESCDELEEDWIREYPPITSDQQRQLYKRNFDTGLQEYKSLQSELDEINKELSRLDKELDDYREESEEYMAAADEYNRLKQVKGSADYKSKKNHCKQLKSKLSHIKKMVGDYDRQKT


Tests used:
[1] = biological target: T1, Occludin (human (endogenous in HBMECs)); test: co-IP; endogenous proteins from HBMEC lysates in modified RIPA buffer (50 mM Tris-HCl pH 7.5, 150 mM NaCl, 1 mM EDTA, 0.5% sodium deoxycholate, 1% Triton X-100, 0.1% SDS); 350 ug total protein with 2.5 ug anti-ZO-1 or anti-Occludin antibody overnight at 4 C, protein A/G agarose beads; cells untreated, treated with 100 nM thrombin for different times, or pretreated with Ang-1 (100 ng/ml, 15 min) before thrombin; also after scramble or PTPN-2 siRNA
[2] = biological target: Zona Occludens-1 (ZO-1) (human (endogenous in HBMECs)) (UniProt Q07157); test: as above

| binding [1] | binding [2] | Molecule |
| --- | --- | --- |
| binds | – | Zona Occludens-1 (ZO-1) (from UniProt Q07157 1-1748) |
| – | binds | Occludin (protein, UniProt Q16625 1-522) MSSRPLESPPPYRPDEFKPNHYAPSNDIYGGEMHVRPMLSQPAYSFYPEDEILHFYKWTSPPGVIRILSMLIIVMCIAIFACVASTLAWDRGYGTSLLGGSVGYPYGGSGFGSYGSGYGYGYGYGYGYGGYTDPRAAKGFMLAMAAFCFIAALVIFVTSVIRSEMSRTRRYYLSVIIVSAILGIMVFIATIVYIMGVNPTAQSSGSLYGSQIYALCNQFYTPAATGLYVDQYLYHYCVVDPQEAIAIVLGFMIIVAFALIIFFAVKTRRKMDRYDKSNILWDKEHIYDEQPPNVEEWVKNVSAGTQDVPSPPSDYVERVDSPMAYSSNGKVNDKRFYPESSYKSTPVPEVVQELPLTSPVDDFRQPRYSSGGNFETPSKRAPAKGRAGRSKRTEQDHYETDYTTGGESCDELEEDWIREYPPITSDQQRQLYKRNFDTGLQEYKSLQSELDEINKELSRLDKELDDYREESEEYMAAADEYNRLKQVKGSADYKSKKNHCKQLKSKLSHIKKMVGDYDRQKT |
